# In patent US20210139525A1, “NUCLEOTIDE PRODRUGS” (CERECOR, INC., priority 2018, published 2021):
# At least one compound was matched to its structure with a doubt left.
# Tested on: Caco-2 cells
# Test: Caco-2 permeability assay
# Assay type: in vitro ADME
# Details: 2 μM, 120 min, with efflux inhibitor; for Caco-2 Papp A-B: A to B direction; for Caco-2 Papp B-A: B to A direction
Structure (SMILES),Caco-2 Papp A-B,Caco-2 Papp B-A
Cc1cn([C@H]2C[C@H](O)[C@@H](COP(=O)(O)O)O2)c(=O)[nH]c1=O [dTMP],<0.03/<0.03 × 10^−6 cm/s,<0.03/<0.03 × 10^−6 cm/s
Nc1ccn([C@H]2C[C@H](O)[C@@H](COP(=O)(O)O)O2)c(=O)n1 [dCMP],<0.04/<0.04 × 10^−6 cm/s,<0.04/<0.04 × 10^−6 cm/s
Nc1nc2c(ncn2[C@H]2C[C@H](O)[C@@H](COP(=O)(O)O)O2)c(=O)[nH]1 [dGMP],2.8e-07 cm/s,5.1e-07 cm/s
